Results from article doi:10.1101/2025.01.21.634043.
These are yes or no findings as the source states them, for the method shown. In cells and extracts the contact can be indirect. Some results given as binding are weak or reduced against the parent protein; the word gives no strength. Tags and fused reporters may be left off the sequences shown.

By UniProt entry, the sequences of proteins in these tests, tags left out.
UniProt O00429: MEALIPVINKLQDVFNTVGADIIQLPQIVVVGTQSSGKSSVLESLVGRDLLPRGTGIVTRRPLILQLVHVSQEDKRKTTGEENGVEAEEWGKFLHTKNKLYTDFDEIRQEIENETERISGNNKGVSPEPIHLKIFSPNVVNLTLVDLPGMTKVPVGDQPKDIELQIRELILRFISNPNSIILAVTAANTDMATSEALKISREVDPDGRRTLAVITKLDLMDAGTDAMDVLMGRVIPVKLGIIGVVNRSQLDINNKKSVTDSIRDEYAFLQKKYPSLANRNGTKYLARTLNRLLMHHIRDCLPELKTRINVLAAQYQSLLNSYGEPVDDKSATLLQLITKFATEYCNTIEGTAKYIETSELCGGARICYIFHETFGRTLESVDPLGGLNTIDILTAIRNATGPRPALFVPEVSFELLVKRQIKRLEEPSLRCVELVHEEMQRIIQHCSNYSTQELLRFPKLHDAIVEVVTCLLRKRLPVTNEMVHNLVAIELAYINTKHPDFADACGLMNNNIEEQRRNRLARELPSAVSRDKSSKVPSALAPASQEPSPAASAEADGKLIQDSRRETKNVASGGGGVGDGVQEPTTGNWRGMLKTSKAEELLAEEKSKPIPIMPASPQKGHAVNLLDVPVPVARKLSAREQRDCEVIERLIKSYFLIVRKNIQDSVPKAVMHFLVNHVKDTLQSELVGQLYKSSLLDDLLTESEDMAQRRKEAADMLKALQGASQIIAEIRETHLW
UniProt O95292: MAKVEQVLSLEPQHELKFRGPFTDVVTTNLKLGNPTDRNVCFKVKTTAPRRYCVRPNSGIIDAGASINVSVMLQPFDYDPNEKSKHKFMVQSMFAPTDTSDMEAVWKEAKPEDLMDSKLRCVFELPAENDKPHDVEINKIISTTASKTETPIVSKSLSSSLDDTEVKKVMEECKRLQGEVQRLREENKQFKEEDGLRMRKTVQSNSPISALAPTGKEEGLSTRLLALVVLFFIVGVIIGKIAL

T1: mycPEX11b (human) (UniProt O96011)
T1 sequence: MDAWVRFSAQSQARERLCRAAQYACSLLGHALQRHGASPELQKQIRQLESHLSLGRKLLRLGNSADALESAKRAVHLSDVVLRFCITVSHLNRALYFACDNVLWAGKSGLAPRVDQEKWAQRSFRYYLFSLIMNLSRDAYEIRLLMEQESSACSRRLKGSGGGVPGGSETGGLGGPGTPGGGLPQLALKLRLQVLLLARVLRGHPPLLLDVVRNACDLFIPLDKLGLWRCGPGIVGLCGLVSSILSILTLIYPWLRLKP

T2: mycACBD5 (human) (UniProt Q5T8D3)
T2 sequence: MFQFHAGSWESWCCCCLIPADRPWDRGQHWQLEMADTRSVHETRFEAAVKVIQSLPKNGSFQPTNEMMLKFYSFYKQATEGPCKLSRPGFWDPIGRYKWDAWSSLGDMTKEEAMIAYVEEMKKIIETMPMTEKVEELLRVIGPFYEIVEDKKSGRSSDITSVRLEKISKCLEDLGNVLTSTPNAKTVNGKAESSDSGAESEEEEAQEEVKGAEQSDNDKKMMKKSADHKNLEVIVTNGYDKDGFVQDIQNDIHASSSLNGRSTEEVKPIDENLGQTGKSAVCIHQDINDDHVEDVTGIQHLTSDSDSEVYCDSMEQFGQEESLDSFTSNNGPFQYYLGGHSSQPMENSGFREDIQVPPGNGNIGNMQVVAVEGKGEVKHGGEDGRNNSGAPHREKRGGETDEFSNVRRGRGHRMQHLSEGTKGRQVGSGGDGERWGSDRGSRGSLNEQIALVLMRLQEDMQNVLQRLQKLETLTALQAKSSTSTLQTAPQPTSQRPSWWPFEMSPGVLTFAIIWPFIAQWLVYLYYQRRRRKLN

B1: mCherry-PEX19 (protein, UniProt P40855 1-299)
chain: MAAAEEGCSVGAEADRELEELLESALDDFDKAKPSPAPPSTTTAPDASGPQKRSPGDTAKDALFASQEKFFQELFDSELASQATAEFEKAMKELAEEEPHLVEQFQKLSEAAGRVGSDMTSQQEFTSCLKETLSGLAKNATDLQNSSMSEEELTKAMEGLGMDEGDGEGNILPIMQSIMQNLLSKDVLYPSLKEITEKYPEWLQSHRESLPPEQFEKYQEQHSVMCKICEQFEAETPTDSETTQKARFEMVLDLMQQLQDLGHPPKELAGEMPPGLNFDLDALNLSGPPGASGEQCLIM
B2: mCherry-PEX11A (protein, UniProt O75192 1-247)
chain: MDAFTRFTNQTQGRDRLFRATQYTCMLLRYLLEPKAGKEKVVMKLKKLESSVSTGRKWFRLGNVVHAIQATEQSIHATDLVPRLCLTLANLNRVIYFICDTILWVRSVGLTSGINKEKWRTRAAHHYYYSLLLSLVRDLYEISLQMKRVTCDRAKKEKSASQDPLWFSVAEEETEWLQSFLLLLFRSLKQHPPLLLDTVKNLCDILNPLDQLGIYKSNPGIIGLGGLVSSIAGMITVAYPQMKLKTR
B3: mycPEX11b (protein, UniProt O96011 1-259)
chain: T1 sequence
B4: mCherry-PEX11G (protein, UniProt Q96HA9 1-241)
chain: MASLSGLASALESYRGRDRLIRVLGYCCQLVGGVLVEQCPARSEVGTRLLVVSTQLSHCRTILRLFDDLAMFVYTKQYGLGAQEEDAFVRCVSVLGNLADQLYYPCEHVAWAADARVLHVDSSRWWTLSTTLWALSLLLGVARSLWMLLKLRQRLRSPTAPFTSPLPRGKRRAMEAQMQSEALSLLSNLADLANAVHWLPRGVLWAGRFPPWLVGLMGTISSILSMYQAARAGGQAEATTP
B5: mCherry-MFF (protein, UniProt Q9GZY8 1-342)
chain: MSKGTSSDTSLGRVSRAAFPSPTAAEMAEISRIQYEMEYTEGISQRMRVPEKLKVAPPNADLEQGFQEGVPNASVIMQVPERIVVAGNNEDVSFSRPADLDLIQSTPFKPLALKTPPRVLTLSERPLDFLDLERPPTTPQNEEIRAVGRLKRERSMSENAVRQNGQLVRNDSLWHRSDSAPRNKISRFQAPISAPEYTVTPSPQQARVCPPHMLPEDGANLSSARGILSLIQSSTRRAYQQILDVLDENRRPVLRGGSAAATSNPHHDNVRYGISNIDTTIEGTSDDLTVVDAASLRRQIIKLNRRLQLLEEENKERAKREMVMYSITVAFWLLNSWLWFRR
B6: mCherry-GDAP1 (protein, UniProt Q8TB36 1-358)
chain: MAERQEEQRGSPPLRAEGKADAEVKLILYHWTHSFSSQKVRLVIAEKALKCEEHDVSLPLSEHNEPWFMRLNSTGEVPVLIHGENIICEATQIIDYLEQTFLDERTPRLMPDKESMYYPRVQHYRELLDSLPMDAYTHGCILHPELTVDSMIPAYATTRIRSQIGNTESELKKLAEENPDLQEAYIAKQKRLKSKLLDHDNVKYLKKILDELEKVLDQVETELQRRNEETPEEGQQPWLCGESFTLADVSLAVTLHRLKFLGFARRNWGNGKRPNLETYYERVLKRKTFNKVLGHVNNILISAVLPTAFRVAKKRAPKVLGTTLVVGLLAGVGYFAFMLFRKRLGSMILAFRPRPNYF

target: T1, mycPEX11b (human); assay: co-IP

binding, binds:
mCherry-DNM1L (from UniProt O00429 1-736), B1, B2, B3, B4, B5, B6

target: T2, mycACBD5 (human); assay: co-IP

binding, binds:
GFP-VAPB (from UniProt O95292 1-243)
